Test results from patent US20230365577A1, “Photodynamic Therapy and Diagnosis” (RMW CHO Group Limited, priority 2020, published 2023).

tested on: SKOV3 ovarian cancer cells; assay: Phototoxicity in SKOV3 cells (652 nm laser, AlamarBlue viability); format: cell-based, Human; conditions: calculated using phototoxicity IC90 vs dark toxicity IC10, SKOV3
Protocol: Human ovarian cancer cell line SKOV3 (ATCC #HTB-77) was maintained in Dulbecco's Modified Eagle Medium/Nutrient Mixture F-12 (DMEM/F-12), supplemented with 10% v/v Fetal Bovine Serum, 100 U/mL penicillin and 100 µg/mL streptomycin. Monolayer cultures were grown in a humidified incubator at 37° C. with 5% CO2.
For in vitro experiments, photosensitizers (stock solution 5.5 mM in 100% DMSO) were diluted in cell culture media (Dulbecco's Modified Eagle Medium/Nutrient Mixture F-12) supplemented with 10% v/v Fetal Bovine Serum, 100 U/mL penicillin, 100 µg/mL streptomycin and 10% w/v Kollidon-12. Once cells had reached ˜80% confluence, spent media was replaced with media containing photosensitizer and cells were incubated for the desired period of time to allow photosensitizer uptake.
SKOV3 cells were seeded in 96-well black wall plates (Greiner #655090) at a cell density of 5000 cells in 100 μl culture medium per well. On reaching ˜60% confluence, so media was aspirated and replaced with fresh media containing the relevant phyllochlorin analogue from 0-100 μM in DMSO. Cells were incubated for a further 24 hours, allowing uptake of phyllochlorin analogues.
To test for phototoxicity, cells incubated with phyllochlorin analogues (0-10 μM in DMSO) had culture media replaced after 24 hours (as above) and were then exposed to a 652 nm laser (Invion) with laser density at 50 mW/cm^2 for 5 mins (total 15 J/cm^2). Following activation, cells were cultured for a further 24 hours. Media was then replaced with fresh media containing AlamarBlue, and % viable cells remaining assessed as above. Controls included cells treated with phyllochlorin analogues but not activated by laser light; cells without phyllochlorin analogue treatment but with laser light; and untreated controls. All measurements were made in quadruplicate.
For comparative purposes, phyllochlorin analogues were tested and compared against both chlorin e4 disodium and Talaporfin sodium, a clinically approved photosensitizer used in the photodynamic treatment of lung cancers. Phototoxicity IC90 values and dark toxicity IC10 values were calculated using a log[inhibitor]-vs normalized response dose curve with variable slope, using the formula Y=100/(1+(IC90/X)^HillSlope (phototoxicity IC90) or Y=100/(1+(IC10/X)^HillSlope (dark toxicity IC10).

Row | Compound | Therapeutic Index
1 | C=Cc1c(C)c2cc3nc(c(C)c4cc(C)c(cc5nc(cc1[nH]2)C(C)=C5CC)[nH]4)[C@@H](CCC(=O)N(C)CCCCCO)[C@@H]3C [Compound 7, 3-((7S,8S)-18-ethyl-2,5,8,12,17-pentamethyl-13-vinyl-7H,8H-porphyrin-7-yl)-N-(5-hydroxypentyl)-N-methylpropanamide] | 285.40
2 | C=Cc1c(C)c2cc3nc(c(C)c4cc(C)c(cc5nc(cc1[nH]2)C(C)=C5CC)[nH]4)[C@@H](CCC(=O)N(C)CCCS[C@@H]1O[C@H](COC(C)=O)[C@@H](OC(C)=O)[C@H](OC(C)=O)[C@H]1OC(C)=O)[C@@H]3C [Compound 11, (2R,3R,4S,5R,6S)-2-(acetoxymethyl)-6-((3-(3-((7S,8S)-18-ethyl-2,5,8,12,17-pentamethyl-13-vinyl-7H,8H-porphyrin-7-yl)-N-methylpropanamido)propyl)thio)tetrahydro-2H-pyran-3,4,5-triyl triacetate] | 58.00
3 | 3-((7S,8S)-18-ethyl-2,5,8,12,17-pentamethyl-13-vinyl-7H,8H-porphyrin-7-yl)-N-(2-(2-hydroxyethoxy)ethyl)-N-methylpropanamide zinc complex [Compound 21] | 1.71
4 | C=Cc1c(C)c2cc3nc(c(C)c4cc(C)c(cc5nc(cc1[nH]2)C(C)=C5CC)[nH]4)[C@@H](CCC(=O)N(C)CCC[S+]([O-])[C@@H]1O[C@H](CO)[C@@H](O)[C@H](O)[C@H]1O)[C@@H]3C (stereo partly drawn) [Compound 9, 3-((7S,8S)-18-ethyl-2,5,8,12,17-pentamethyl-13-vinyl-7H,8H-porphyrin-7-yl)-N-methyl-N-(3-(((2S,3R,4S,5S,6R)-3,4,5-trihydroxy-6-(hydroxymethyl)tetrahydro-2H-pyran-2-yl)thio)propyl)propanamide sulphoxide] | 369.68
5 | C=Cc1c(C)c2cc3nc(c(C)c4cc(C)c(cc5nc(cc1[nH]2)C(C)=C5CC)[nH]4)[C@@H](CCC(=O)N(C)CCOCCOCCO)[C@@H]3C [Compound 4, 3-((7S,8S)-18-ethyl-2,5,8,12,17-pentamethyl-13-vinyl-7H,8H-porphyrin-7-yl)-N-(2-(2-(2-hydroxyethoxy)ethoxy)ethyl)-N-methylpropanamide] | 136.75
6 | C=Cc1c(C)c2cc3nc(c(C)c4cc(C)c(cc5nc(cc1[nH]2)C(C)=C5CC)[nH]4)[C@@H](CCC(=O)N(C)CCO)[C@@H]3C [Compound 10, 3-((7S,8S)-18-ethyl-2,5,8,12,17-pentamethyl-13-vinyl-7H,8H-porphyrin-7-yl)-N-(2-hydroxyethyl)-N-methylpropanamide] | 93.38
7 | C=Cc1c(C)c2cc3nc(c(C)c4cc(C)c(cc5nc(cc1[nH]2)C(C)=C5CC)[nH]4)[C@@H](CCC(=O)N(C)CCCO[C@@H]1O[C@H](CO)[C@@H](O)[C@H](O)[C@H]1O)[C@@H]3C [Compound 15, 3-((7S,8S)-18-ethyl-2,5,8,12,17-pentamethyl-13-vinyl-7H,8H-porphyrin-7-yl)-N-methyl-N-(3-(((2R,3R,4S,5S,6R)-3,4,5-trihydroxy-6-(hydroxymethyl)tetrahydro-2H-pyran-2-yl)oxy)propyl)propanamide] | 63.48
8 | C=Cc1c(C)c2cc3nc(c(C)c4cc(C)c(cc5nc(cc1[nH]2)C(C)=C5CC)[nH]4)[C@@H](CCC(=O)N(C)CCCS[C@@H]1O[C@H](COC(=O)[C@@H](N)C(C)C)[C@@H](O)[C@H](O)[C@H]1O)[C@@H]3C [Compound 12, ((2R,3S,4S,5R,6S)-6-((3-(3-((7S,8S)-18-ethyl-2,5,8,12,17-pentamethyl-13-vinyl-7H,8H-porphyrin-7-yl)-N-methylpropanamido)propyl)thio)-3,4,5-trihydroxytetrahydro-2H-pyran-2-yl)methyl L-valinate hydrochloride] | 157.56
9 | C=Cc1c(C)c2cc3nc(c(C)c4cc(C)c(cc5nc(cc1[nH]2)C(C)=C5CC)[nH]4)[C@@H](CCC(=O)N(C)CCOCCO)[C@@H]3C [Compound 18, 3-((7S,8S)-18-ethyl-2,5,8,12,17-pentamethyl-13-vinyl-7H,8H-porphyrin-7-yl)-N-(2-(2-hydroxyethoxy)ethyl)-N-methylpropanamide] | 323.00
10 | C=Cc1c(C)c2cc3nc(c(C)c4cc(C)c(cc5nc(cc1[nH]2)C(C)=C5CC)[nH]4)[C@@H](CCC(=O)N(C)CCCS[C@H]1O[C@H](CO)[C@@H](O)[C@H](O)[C@@H]1O)[C@@H]3C [Compound 16, phyllochlorin α-D-1-thiomannose-N-methylpropylamide conjugate] | 114.56
11 | C=CC1=C(C)c2cc3nc(c(C)c4cc(C)c(cc5[nH]c(cc1n2)c(C)c5CC)[nH]4)[C@@H](CCC(=O)O)[C@@H]3C [Phyllochlorin free acid, phyllochlorin free acid] | 47.62
12 | C=Cc1c(C)c2cc3nc(c(CC(=O)N[C@@H](CC(=O)O)C(=O)O)c4[nH]c(cc5nc(cc1[nH]2)C(C)=C5CC)c(C)c4C(=O)O)[C@@H](CCC(=O)O)[C@@H]3C [Talaporfin sodium, mono-L-aspartyl chlorin e6, reference compound] | 0.49
13 | C=Cc1c(C)c2cc3nc(c(C)c4cc(C)c(cc5nc(cc1[nH]2)C(C)=C5CC)[nH]4)[C@@H](CCC(=O)NCCOCCO[C@@H]1O[C@H](CO)[C@@H](O)[C@H](O)[C@H]1O)[C@@H]3C [Compound 20, 3-((7S,8S)-18-ethyl-2,5,8,12,17-pentamethyl-13-vinyl-7H,8H-porphyrin-7-yl)-N-(2-(2-(((2R,3R,4S,5S,6R)-3,4,5-trihydroxy-6-(hydroxymethyl)tetrahydro-2H-pyran-2-yl)oxy)ethoxy)ethyl)propanamide] | 201.00
14 | C=Cc1c(C)c2cc3nc(c(C)c4cc(C)c(cc5nc(cc1[nH]2)C(C)=C5CC)[nH]4)[C@@H](CCC(=O)N(C)CCCO)[C@@H]3C [Compound 5, 3-((7S,8S)-18-ethyl-2,5,8,12,17-pentamethyl-13-vinyl-7H,8H-porphyrin-7-yl)-N-(3-hydroxypropyl)-N-methylpropanamide] | 416.40
15 | 3-((7S,8S)-18-ethyl-2,5,8,12,17-pentamethyl-13-vinyl-7H,8H-porphyrin-7-yl)-N-methyl-N-(3-(((2S,3R,4S,5S,6R)-3,4,5-trihydroxy-6-(hydroxymethyl)tetrahydro-2H-pyran-2-yl)thio)propyl)propanamide zinc complex [Compound 19] | 1.57
16 | C=Cc1c(C)c2cc3nc(c(C)c4cc(C)c(cc5nc(cc1[nH]2)C(C)=C5CC)[nH]4)[C@@H](CCC(=O)N(C)CCOCCO[C@@H]1O[C@H](CO)[C@@H](O)[C@H](O)[C@H]1O)[C@@H]3C [Compound 14, 3-((7S,8S)-18-ethyl-2,5,8,12,17-pentamethyl-13-vinyl-7H,8H-porphyrin-7-yl)-N-methyl-N-(2-(2-(((2R,3R,4S,5S,6R)-3,4,5-trihydroxy-6-(hydroxymethyl)tetrahydro-2H-pyran-2-yl)oxy)ethoxy)ethyl)propanamide] | 134.06
17 | C=Cc1c(C)c2cc3nc(c(C)c4cc(C)c(cc5nc(cc1[nH]2)C(C)=C5CC)[nH]4)[C@@H](CCC(=O)N[C@H]1C(O)O[C@H](CO)[C@@H](O)[C@@H]1O)[C@@H]3C (stereo partly shown) [Compound 13, phyllochlorin 2-deoxyglucosamine-propylamide] | 108.50
18 | C=Cc1c(C)c2cc3nc(c(C)c4[nH]c(cc5nc(cc1[nH]2)C(C)=C5CC)c(C)c4C(=O)O)[C@@H](CCC(=O)O)[C@@H]3C [Chlorin e4 disodium, chlorin e4 disodium, reference compound] | 1.89
19 | C=Cc1c(C)c2cc3nc(c(C)c4cc(C)c(cc5nc(cc1[nH]2)C(C)=C5CC)[nH]4)[C@@H](CCC(=O)O)[C@@H]3C [Compound 1e, phyllochlorin meglumine salt] | 11.58
20 | C=Cc1c(C)c2cc3nc(c(C)c4cc(C)c(cc5nc(cc1[nH]2)C(C)=C5CC)[nH]4)[C@@H](CCC(=O)O)[C@@H]3C [Compound 1c, phyllochlorin choline salt] | 276.24

same assay, conditions: calculated using phototoxicity IC90 vs dark toxicity IC10, SKOV3; lithium salt

Row | Compound | Therapeutic Index
21 | C=Cc1c(C)c2cc3nc(c(C)c4cc(C)c(cc5nc(cc1[nH]2)C(C)=C5CC)[nH]4)[C@@H](CCC(=O)O)[C@@H]3C [Compound 1b, phyllochlorin lithium salt] | 15.81

same assay, conditions: calculated using phototoxicity IC90 vs dark toxicity IC10, SKOV3; potassium salt

Row | Compound | Therapeutic Index
22 | C=Cc1c(C)c2cc3nc(c(C)c4cc(C)c(cc5nc(cc1[nH]2)C(C)=C5CC)[nH]4)[C@@H](CCC(=O)O)[C@@H]3C [Compound 1a, phyllochlorin potassium salt] | 26.40

Structures can show the parent of a compound that is named as a salt.
